Results deposited as PubChem BioAssay AID652243 (Drosophila RNAi Screening Center, 2013).

Purpose: 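Fly genes required for human androgen receptor driven transcription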 (primary screen)
Cell system: Drosophila S2R+ cells
Reagent: long dsRNA against Drosophila genes
Time to read-out: 72 h (48 h, then 24 h hormone)
Challenge: synthetic androgen R1881 at 10 nM for 24 h
Read-out: 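Firefly light from an androgen-responsive reporter and Renilla control light per well, raw and unnormalised, for each of two replicates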
Scale: firefly reporter light: higher = more light from androgen-responsive reporter; Renilla control light: higher = more constitutive control signal (cell number, transfection)
Hit rule: 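Across duplicate plates, a knock-down whose log firefly/Renilla ratio shifted a set fold down or up from the GFP/LacZ control mean was a hit; the downward cut appears as both 1.5 and 3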
Calls: active = hit: reporter lowered or raised; inactive = no hit
The deposit covers about 24,000 reagents; below is a random part of those that have a named target and a result. In the full data, 246 (1%) are marked active. 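Plates not normalised; calls are printed but the firefly/Renilla ratio behind them is not deposited; fold cut for lowering reported inconsistently.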 Raw values are not corrected between plates. A plus sign joins genes that one reagent is predicted to hit. Reagent sequences are not shown. Not stated in the record: the amount of reagent.

With CG33346 [DRSC22898], what was measured?
firefly reporter light, replicate 1: 8.16e5; firefly reporter light, replicate 2: 1.04e6; Renilla control light, replicate 1: 2.09e6; Renilla control light, replicate 2: 2.99e6; Call: inactive

How did the screen score ArfGAP1 (ADP-ribosylation factor GTPase activating protein 1) [DRSC11173]?
firefly reporter light, replicate 1: 1.47e5; firefly reporter light, replicate 2: 92939; Renilla control light, replicate 1: 1.24e6; Renilla control light, replicate 2: 9.56e5; Call: inactive

With CG40467 (retired record) [DRSC37733], what was measured?
firefly reporter light, replicate 1: 9.11e5; firefly reporter light, replicate 2: 7.22e5; Renilla control light, replicate 1: 1.63e6; Renilla control light, replicate 2: 1.80e6; Call: inactive

For CG1273 [DRSC08291], how do the results read?
firefly reporter light, replicate 1: 1.53e5; firefly reporter light, replicate 2: 1.61e5; Renilla control light, replicate 1: 1.90e6; Renilla control light, replicate 2: 1.94e6; Call: inactive

What is on record for CG14190 [DRSC19545]?
firefly reporter light, replicate 1: 1.90e5; firefly reporter light, replicate 2: 91103; Renilla control light, replicate 1: 7.34e5; Renilla control light, replicate 2: 2.80e5; Call: inactive

With CG14190 [DRSC27410], how do the results read?
firefly reporter light, replicate 1: 2.36e5; firefly reporter light, replicate 2: 1.98e5; Renilla control light, replicate 1: 6.42e5; Renilla control light, replicate 2: 5.53e5; Call: inactive

For CG15822 [DRSC08482], how do the results read?
firefly reporter light, replicate 1: 62639; firefly reporter light, replicate 2: 56556; Renilla control light, replicate 1: 1.10e6; Renilla control light, replicate 2: 9.67e5; Call: inactive

What did the screen give for CG15822 [DRSC08483]?
firefly reporter light, replicate 1: 32969; firefly reporter light, replicate 2: 49635; Renilla control light, replicate 1: 5.80e5; Renilla control light, replicate 2: 8.02e5; Call: inactive

Which result is listed for Mst98Ca (Male-specific RNA 98Ca) [DRSC16749]?
firefly reporter light, replicate 1: 5.59e5; firefly reporter light, replicate 2: 5.34e5; Renilla control light, replicate 1: 1.18e6; Renilla control light, replicate 2: 1.50e6; Call: inactive

For Sugb (Sugar baby) [DRSC10815], how do the results read?
firefly reporter light, replicate 1: 7.63e5; firefly reporter light, replicate 2: 1.35e6; Renilla control light, replicate 1: 7.36e5; Renilla control light, replicate 2: 1.33e6; Call: inactive

For CG42355 [DRSC07967], how do the results read?
firefly reporter light, replicate 1: 1.68e5; firefly reporter light, replicate 2: 1.51e5; Renilla control light, replicate 1: 2.75e5; Renilla control light, replicate 2: 2.38e5; Call: inactive

For CG15657 [DRSC04248], what does the deposit list?
firefly reporter light, replicate 1: 2.87e5; firefly reporter light, replicate 2: 3.04e5; Renilla control light, replicate 1: 1.74e6; Renilla control light, replicate 2: 1.64e6; Call: inactive

With Cby (Chibby) [DRSC14591], what was measured?
firefly reporter light, replicate 1: 1.99e5; firefly reporter light, replicate 2: 2.00e5; Renilla control light, replicate 1: 2.60e6; Renilla control light, replicate 2: 3.00e6; Call: inactive

With CG11249 [DRSC11645], how do the results read?
firefly reporter light, replicate 1: 2.83e5; firefly reporter light, replicate 2: 3.20e5; Renilla control light, replicate 1: 3.15e6; Renilla control light, replicate 2: 2.60e6; Call: inactive

For CG11249 [DRSC39272], what does the deposit list?
Call: inactive

For CG11249 [DRSC39273], what does the deposit list?
Call: inactive

How did the screen score AttA (Attacin-A) [DRSC05926]?
firefly reporter light, replicate 1: 9.57e5; firefly reporter light, replicate 2: 7.31e5; Renilla control light, replicate 1: 1.97e6; Renilla control light, replicate 2: 1.96e6; Call: inactive

For AttA (Attacin-A) [DRSC27311], how do the results read?
firefly reporter light, replicate 1: 2.03e5; firefly reporter light, replicate 2: 3.11e5; Renilla control light, replicate 1: 6.39e5; Renilla control light, replicate 2: 7.14e5; Call: inactive

In a second layout: entries from further up
gene	DRSC id	firefly reporter light, replicate 1	firefly reporter light, replicate 2	Renilla control light, replicate 1	Renilla control light, replicate 2	Call
CG15657	DRSC04248	2.87e5	3.04e5	1.74e6	1.64e6	inactive
Cby (Chibby)	DRSC14591	1.99e5	2.00e5	2.60e6	3.00e6	inactive
CG11249	DRSC11645	2.83e5	3.20e5	3.15e6	2.60e6	inactive
CG11249	DRSC39272					inactive

More entries follow.
What is on record for MESK2 + CG10494 [DRSC04259]?
firefly reporter light, replicate 1: 66144; firefly reporter light, replicate 2: 90610; Renilla control light, replicate 1: 1.26e6; Renilla control light, replicate 2: 1.21e6; Call: active

What is on record for betaggt-I (beta subunit of type I geranylgeranyl transferase) [DRSC03494]?
firefly reporter light, replicate 1: 1.53e5; firefly reporter light, replicate 2: 1.43e5; Renilla control light, replicate 1: 1.57e6; Renilla control light, replicate 2: 8.68e5; Call: inactive

How did the screen score CG15882 [DRSC19735]?
firefly reporter light, replicate 1: 1.32e5; firefly reporter light, replicate 2: 1.00e5; Renilla control light, replicate 1: 6.81e5; Renilla control light, replicate 2: 3.58e5; Call: inactive

Which result is listed for E(spl)malpha-BFM (Enhancer of split malpha, Bearded family member) [DRSC16994]?
firefly reporter light, replicate 1: 66626; firefly reporter light, replicate 2: 80520; Renilla control light, replicate 1: 9.15e5; Renilla control light, replicate 2: 7.85e5; Call: inactive

What is on record for E(spl)malpha-BFM (Enhancer of split malpha, Bearded family member) [DRSC28358]?
firefly reporter light, replicate 1: 3.66e5; firefly reporter light, replicate 2: 6.60e5; Renilla control light, replicate 1: 7.88e5; Renilla control light, replicate 2: 1.48e6; Call: inactive

What is on record for CG12992 [DRSC19512]?
firefly reporter light, replicate 1: 4.36e5; firefly reporter light, replicate 2: 3.54e5; Renilla control light, replicate 1: 2.82e6; Renilla control light, replicate 2: 2.20e6; Call: inactive

With Mettl2 (Methyltransferase like 2) [DRSC08398], what does the deposit list?
firefly reporter light, replicate 1: 1.55e6; firefly reporter light, replicate 2: 6.06e5; Renilla control light, replicate 1: 2.00e6; Renilla control light, replicate 2: 1.16e6; Call: inactive

What is on record for Mettl2 (Methyltransferase like 2) [DRSC29727]?
firefly reporter light, replicate 1: 4.93e5; firefly reporter light, replicate 2: 4.09e5; Renilla control light, replicate 1: 1.43e6; Renilla control light, replicate 2: 1.21e6; Call: inactive

What did the screen give for CG11608 [DRSC14334]?
firefly reporter light, replicate 1: 38751; firefly reporter light, replicate 2: 41691; Renilla control light, replicate 1: 7.32e5; Renilla control light, replicate 2: 8.19e5; Call: inactive
